Laboratory results published in paper PMC11984394.
No constants are given. Whether binding was seen depends on the method and setting. In cells and extracts the contact can be indirect. A yes stands for co-enrichment or nearness to the bait. Other partners may have been found.

By UniProt entry, the sequences of proteins in these tests, tags left out. Residues count along the entry.
UniProt P21802, residues 22-821: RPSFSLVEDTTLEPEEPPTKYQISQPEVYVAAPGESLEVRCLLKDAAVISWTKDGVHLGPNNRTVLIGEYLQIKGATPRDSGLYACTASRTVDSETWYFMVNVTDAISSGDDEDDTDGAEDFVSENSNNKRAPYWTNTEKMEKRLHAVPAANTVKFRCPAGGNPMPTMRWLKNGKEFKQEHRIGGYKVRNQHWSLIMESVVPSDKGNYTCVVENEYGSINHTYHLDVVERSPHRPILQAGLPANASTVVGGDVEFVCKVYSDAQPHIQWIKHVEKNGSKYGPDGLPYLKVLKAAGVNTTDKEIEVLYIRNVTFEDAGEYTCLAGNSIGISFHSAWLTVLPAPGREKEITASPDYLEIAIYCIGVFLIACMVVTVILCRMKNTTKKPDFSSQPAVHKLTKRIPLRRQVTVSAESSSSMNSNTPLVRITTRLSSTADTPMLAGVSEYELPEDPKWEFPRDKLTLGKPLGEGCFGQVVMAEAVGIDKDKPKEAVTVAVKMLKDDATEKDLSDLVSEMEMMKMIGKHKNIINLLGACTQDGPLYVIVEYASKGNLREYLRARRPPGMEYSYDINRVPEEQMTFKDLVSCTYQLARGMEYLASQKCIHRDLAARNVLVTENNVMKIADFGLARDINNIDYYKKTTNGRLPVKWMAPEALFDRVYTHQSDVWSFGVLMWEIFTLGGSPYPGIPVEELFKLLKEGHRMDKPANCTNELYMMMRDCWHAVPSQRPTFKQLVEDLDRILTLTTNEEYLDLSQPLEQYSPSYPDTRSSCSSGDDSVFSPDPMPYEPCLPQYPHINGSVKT

Target: T1, recombinant human SFRP1 protein (human) (UniProt Q8N474)
T1 sequence: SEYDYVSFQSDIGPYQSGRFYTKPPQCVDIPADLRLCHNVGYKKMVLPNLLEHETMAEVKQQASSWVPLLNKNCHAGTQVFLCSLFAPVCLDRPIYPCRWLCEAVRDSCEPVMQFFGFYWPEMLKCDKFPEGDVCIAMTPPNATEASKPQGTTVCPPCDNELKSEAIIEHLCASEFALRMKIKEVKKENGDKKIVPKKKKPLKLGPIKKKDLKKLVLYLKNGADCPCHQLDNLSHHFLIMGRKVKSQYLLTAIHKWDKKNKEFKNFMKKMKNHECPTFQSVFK
Assay: affinity purification with mass spectrometry; rhSFRP1 added to 7 x 10^6 SW480 cells for 48 h; IP with 10 ug SFRP1-specific antibody or species-matched normal IgG (Pierce Crosslink Magnetic IP/Co-IP Kit); SDS-PAGE, silver staining, bands excised and analysed by MS; only the target purified

Substance: FGFR2 receptor (from UniProt P21802 22-821)
- binding: binds
